# This is one part of the list. Shown are side measurements of this screen, not its main read-out; they come without a call. The list favours compounds with an active or inconclusive main result. Words in brackets tell the shape of the fitted curve; partial curves, single points and poor fits give uncertain potencies.
# Test: qHTS Assay for Modulators of Lamin A Splicing
# Conditions: HeLa LMNA splicing GFP/RFP minigene ratio, 48 h
# Method in brief: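 Read-out is the ratio of GFP to DsRed2 object intensity, acquired by 488 nm laser-scanning cytometry on HeLa lamin A-EGFP minigene reporter cells. Compound incubation 48 hrs at 37 °C in Opti-MEM with 2% FBS; DMSO 0.5% final.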
# [1] = measured here: GFP splicing reporter channel
# [2] = measured here: RFP viability control channel
Compound,AC50 [1],AC50 [2]
O=C(/C=C/c1ccc(Br)cc1)c1ccco1,"25.1 µM [falling, partial curve]","22.4 µM [falling, single point]"
O=C(Nc1cc(C(F)(F)F)ccc1Cl)C(NCc1ccccc1)c1ccccc1 (stereo not drawn),"35.5 µM [rising, single point]",–
CCOC(=O)c1oc2cc(O)c(CC)cc2c(=O)c1-c1ccc2c(c1)OCCO2,–,"20 µM [rising, partial curve, poor fit]"
CCOc1cccc(CC(=O)N2CCc3c([nH]c4ccccc34)C2c2ccc(F)cc2)c1OCC (stereo not drawn),"0.0251 µM [rising, full curve]",–
CC1CC(Nc2ccccc2)c2ccccc2N1C(=O)c1ccncc1 (stereo not drawn),"3.98 µM [falling, full curve]","6.31 µM [falling, full curve]"
CN1CCN(CCOc2ccc(Cl)c(Cl)c2)CC1,"5.01 µM [rising, partial curve]",–
CCOc1ccccc1CNC(=O)c1ccc(Sc2ccc(Cl)cc2)c(NC(C)=O)c1,"0.158 µM [rising, full curve, poor fit]","22.4 µM [rising, single point]"
COc1cccc(-n2c(=O)c3c(C)c(C(=O)N(C)C)sc3n(CC(=O)NCCc3ccc(OC)c(OC)c3)c2=O)c1,–,"1.26 µM [falling, partial curve]"
O=C(NC1CC2CCCC(C1)N2Cc1ccccc1)C1CCCCC1 (stereo not drawn),–,"2.51 µM [falling, partial curve, poor fit]"
CC1CCCN(Cc2c(O)ccc3c(=O)c(-c4nc5ccccc5s4)c(N)oc23)C1 (stereo not drawn),"35.5 µM [falling, single point]",–
O=C(/C=C/c1ccc2c(c1)OCO2)N1CCN(c2ccccc2F)CC1,"17.8 µM [rising, partial curve, poor fit]","15.8 µM [rising, single point]"
O=C1c2ccccc2C2=Nc3ccccc3SC(c3ccc(Cl)cc3)C12 (stereo not drawn),"12.6 µM [rising, partial curve, poor fit]","14.1 µM [rising, partial curve]"
Cc1cc(-c2nnc(CCC(=O)NCc3ccc(F)c(F)c3)o2)no1,"5.01 µM [falling, single point]","35.5 µM [falling, single point]"
OCc1ccc(-c2nn(Cc3ccccc3)c3ccccc23)o1,"10 µM [falling, partial curve]","11.2 µM [falling, partial curve]"
COc1ccc(Cc2nnc(NC(=O)c3cccc([N+](=O)[O-])c3)s2)cc1,–,"0.562 µM [rising, full curve, poor fit]"
Cn1c(=O)cc(OCCCC(=O)N2CCCCC2)c2ccccc21,–,"1 µM [rising, partial curve]"
CC(C)C(C)NC(=O)COC(=O)c1cccc(C(=O)OCC(=O)NC(C)C(C)C)n1 (stereo not drawn),"4.47 µM [falling, full curve]",–
CSCC[C@H](NC(=O)C1CCN(S(=O)(=O)c2ccc(C)cc2)CC1)C(=O)NC1CCS(=O)(=O)C1 (stereo partly drawn),–,"0.316 µM [falling, full curve, poor fit]"

Compound,AC50 [1],AC50 [2]
O=C(N/N=C/c1cc([N+](=O)[O-])ccc1O)c1cc(-c2ccccc2)nc2ccccc12,–,"10 µM [rising, partial curve]"
CC(=O)NC(=S)Nc1cc(C(F)(F)F)ccc1N1CCOCC1,–,"14.1 µM [rising, single point]"
COc1ccccc1-n1cc(CN2CCCC(CO)(Cc3cccc(Cl)c3)C2)cn1 (stereo not drawn),"0.891 µM [falling, full curve, poor fit]",–
N#Cc1ccsc1NC(=O)CN1CCN(S(=O)(=O)c2ccc3ccccc3c2)CC1,"25.1 µM [rising, single point]","1.26 µM [rising, partial curve]"
O=S(=O)(Nc1ccc(S(=O)(=O)Nc2nccs2)cc1)c1ccc2c(c1)OCCO2,–,"15.8 µM [rising, single point]"
COc1ccc([N+](=O)[O-])cc1NC(=O)Cc1ccc(C)cc1,–,"8.91 µM [rising, partial curve, poor fit]"
Cc1ccc(N=C2NC(=O)C(CC(=O)NCc3ccccc3)S2)cc1C (stereo not drawn),"15.8 µM [rising, partial curve, poor fit]","0.224 µM [rising, full curve, poor fit]"
CCc1cccc(CC)c1-n1c(SCC(=O)N2CCc3ccccc3C2)nnc1-c1cccnc1,"31.6 µM [rising, single point]",–
O=C(c1ccco1)N1CCN(C(=O)c2cc3sccc3n2Cc2ccccc2)CC1,–,"14.1 µM [rising, partial curve]"
CN(C)S(=O)(=O)NCCNc1ccc(C(F)(F)F)cc1[N+](=O)[O-],"4.47 µM [falling, partial curve]","5.62 µM [falling, partial curve]"
O=C1Nc2c(Br)cc(Br)cc2C1(O)N1CCOCC1 (stereo not drawn),"28.2 µM [falling, single point]","25.1 µM [falling, single point]"
COc1cccc(N2C(=O)CC(c3c[nH]c4ccccc34)C2=O)c1 (stereo not drawn),"4.47 µM [rising, partial curve]","5.62 µM [rising, single point]"
O=C(Cc1ccc(-n2cccc2)cc1)NC1CCCCCC1,–,"11.2 µM [rising, partial curve]"
CC12CCCCN1CCCc1c2[nH]c2ccccc12 (stereo not drawn),"0.794 µM [rising, full curve, poor fit]","0.251 µM [falling, full curve, poor fit]"
COC(=O)c1ccc(C2c3c(oc4ccc(F)cc4c3=O)C(=O)N2CCO)cc1 (stereo not drawn),–,"25.1 µM [rising, single point]"
O=C(NC1=NCCS1)c1sc2cc(Cl)cc(Cl)c2c1Cl,–,"0.0141 µM [rising, full curve, poor fit]"
CCOC(=O)c1c(NC(=O)C2=C(C)NC(=S)NC2c2ccc(F)cc2F)sc(C)c1C (stereo not drawn),–,"15.8 µM [rising, single point]"

# Some of the entries above, set out differently:
Compound | AC50 [1] | AC50 [2]
O=S(=O)(Nc1ccc(S(=O)(=O)Nc2nccs2)cc1)c1ccc2c(c1)OCCO2 | – | 15.8 µM [rising, single point]
COc1ccc([N+](=O)[O-])cc1NC(=O)Cc1ccc(C)cc1 | – | 8.91 µM [rising, partial curve, poor fit]
Cc1ccc(N=C2NC(=O)C(CC(=O)NCc3ccccc3)S2)cc1C (stereo not drawn) | 15.8 µM [rising, partial curve, poor fit] | 0.224 µM [rising, full curve, poor fit]
CCc1cccc(CC)c1-n1c(SCC(=O)N2CCc3ccccc3C2)nnc1-c1cccnc1 | 31.6 µM [rising, single point] | –
O=C(c1ccco1)N1CCN(C(=O)c2cc3sccc3n2Cc2ccccc2)CC1 | – | 14.1 µM [rising, partial curve]
CN(C)S(=O)(=O)NCCNc1ccc(C(F)(F)F)cc1[N+](=O)[O-] | 4.47 µM [falling, partial curve] | 5.62 µM [falling, partial curve]
O=C1Nc2c(Br)cc(Br)cc2C1(O)N1CCOCC1 (stereo not drawn) | 28.2 µM [falling, single point] | 25.1 µM [falling, single point]
COc1cccc(N2C(=O)CC(c3c[nH]c4ccccc34)C2=O)c1 (stereo not drawn) | 4.47 µM [rising, partial curve] | 5.62 µM [rising, single point]
O=C(Cc1ccc(-n2cccc2)cc1)NC1CCCCCC1 | – | 11.2 µM [rising, partial curve]
CC12CCCCN1CCCc1c2[nH]c2ccccc12 (stereo not drawn) | 0.794 µM [rising, full curve, poor fit] | 0.251 µM [falling, full curve, poor fit]

# — PubChem BioAssay AID1487 (National Center for Advancing Translational Sciences (NCATS), 2009)
